No constants are given. Whether binding was seen depends on the method and setting. Binding seen in cells or lysates may run through a third protein. Some entries that bind do so weakly or less than the wild type.
How the values were obtained:
[1] = target: Pax7 (mouse (endogenous in C2C12 cells and in mouse TA muscle)) (UniProt P47239); experiment: co-IP; whole tibialis anterior muscle extracts at 30 dpi, injured and non-injured muscles, vehicle- or tamoxifen-treated Abl1 flox/flox-Pax7 creERT2 mice; IP of Pax7, c-Abl detected by Western blot
[2] = target: Pax7 (mouse (endogenous in C2C12 cells and in mouse TA muscle)) (UniProt P47239); experiment: co-IP; C2C12 cells in proliferation medium, treated with vehicle or 10 uM Imatinib for 24 h; lysis in modified RIPA (50 mM Tris-HCl pH 7.4, 150 mM NaCl, 1% IGEPAL); IP with anti-Pax7 or normal mouse IgG on Dynabeads Protein G, 2 h at room temperature; c-Abl detected by Western blot

The chains behind the UniProt entries cited, without tags or fusion partners.
UniProt P47239: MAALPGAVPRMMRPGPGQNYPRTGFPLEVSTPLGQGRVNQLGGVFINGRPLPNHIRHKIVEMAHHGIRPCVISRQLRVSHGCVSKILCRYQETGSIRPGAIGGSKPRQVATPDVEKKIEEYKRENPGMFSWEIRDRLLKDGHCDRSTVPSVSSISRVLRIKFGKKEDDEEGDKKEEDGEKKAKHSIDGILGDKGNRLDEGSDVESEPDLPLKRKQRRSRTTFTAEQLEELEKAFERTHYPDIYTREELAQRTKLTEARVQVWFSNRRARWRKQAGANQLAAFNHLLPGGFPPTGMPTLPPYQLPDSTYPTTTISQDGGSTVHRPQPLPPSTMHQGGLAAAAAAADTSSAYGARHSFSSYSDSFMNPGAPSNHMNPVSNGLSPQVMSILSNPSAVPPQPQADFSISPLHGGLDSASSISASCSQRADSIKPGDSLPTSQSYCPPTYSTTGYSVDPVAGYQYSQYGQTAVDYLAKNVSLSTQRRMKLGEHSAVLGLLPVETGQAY
UniProt P00520: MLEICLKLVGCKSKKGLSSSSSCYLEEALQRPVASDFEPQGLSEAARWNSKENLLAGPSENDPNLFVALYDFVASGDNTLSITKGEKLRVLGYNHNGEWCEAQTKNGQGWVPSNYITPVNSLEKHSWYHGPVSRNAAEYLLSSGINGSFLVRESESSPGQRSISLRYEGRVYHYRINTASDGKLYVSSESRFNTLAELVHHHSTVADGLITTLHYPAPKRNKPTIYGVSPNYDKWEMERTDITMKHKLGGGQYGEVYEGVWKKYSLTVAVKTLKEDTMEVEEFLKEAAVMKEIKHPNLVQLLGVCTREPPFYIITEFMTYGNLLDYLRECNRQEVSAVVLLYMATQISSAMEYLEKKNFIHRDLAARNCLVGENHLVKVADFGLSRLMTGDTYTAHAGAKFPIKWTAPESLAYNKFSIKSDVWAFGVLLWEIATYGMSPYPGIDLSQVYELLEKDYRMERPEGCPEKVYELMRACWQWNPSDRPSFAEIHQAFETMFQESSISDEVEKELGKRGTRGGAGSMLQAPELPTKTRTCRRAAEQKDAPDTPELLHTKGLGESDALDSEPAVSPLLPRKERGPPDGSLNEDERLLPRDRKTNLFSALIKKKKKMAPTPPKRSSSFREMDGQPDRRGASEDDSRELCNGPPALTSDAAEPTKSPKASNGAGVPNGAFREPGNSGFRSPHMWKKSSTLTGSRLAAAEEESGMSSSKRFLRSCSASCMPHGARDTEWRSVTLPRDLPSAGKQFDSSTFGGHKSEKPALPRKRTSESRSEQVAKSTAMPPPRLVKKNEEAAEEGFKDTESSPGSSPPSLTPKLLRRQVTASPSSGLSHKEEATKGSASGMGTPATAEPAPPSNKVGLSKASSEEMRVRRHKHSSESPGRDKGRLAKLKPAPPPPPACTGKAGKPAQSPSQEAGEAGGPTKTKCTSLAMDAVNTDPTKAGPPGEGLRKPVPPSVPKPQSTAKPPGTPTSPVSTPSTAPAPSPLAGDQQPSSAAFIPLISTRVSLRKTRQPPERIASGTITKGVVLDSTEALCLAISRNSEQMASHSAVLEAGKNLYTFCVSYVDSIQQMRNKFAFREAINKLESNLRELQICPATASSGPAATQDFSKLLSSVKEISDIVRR

- binding [2]: binds
Substance: Abelson non-receptor tyrosine kinase 1 (c-Abl) (from UniProt P00520 1-1123) (enzyme)
- binding [1]: binds

Source: article PMC7990767
